Measurements: the supplement of paper PMC8728848
This is one part of the list.

Assays:
Assay in all cases: glycan array binding signal (z-score within array); higher = stronger binding
Conditions in all cases: glycan notation: IUPAC condensed, linker removed
Gal6S(b1-4)Glc = target: Gal6S(b1-4)Glc
Method in brief: (§1)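 Glycan array data were curated from 3228 arrays in the Consortium for Functional Glycomics database and kept only where the protein sequence was available. Glycan names were converted to IUPAC-condensed notation, and columns mapping to the same glycan were averaged. The binding signal is a within-array Z-score, averaged across arrays of the same protein sequence at different concentrations or buffers and across linkers. Negative Z-scores can be read as non-binding.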

Gal6S(b1-4)Glc6S = target: Gal6S(b1-4)Glc6S
Method in brief: as §1

Gal6S(b1-4)GlcNAc = target: Gal6S(b1-4)GlcNAc
Method in brief: as §1

Gal6S(b1-4)GlcNAc6S = target: Gal6S(b1-4)GlcNAc6S
Method in brief: as §1

GalNAc(a1-3)Gal = target: GalNAc(a1-3)Gal
Method in brief: as §1

GalNAc(a1-3)GalNAc = target: GalNAc(a1-3)GalNAc
Method in brief: as §1

[1] = target: GalNAc(a1-3)GalNAc(b1-3)Gal(a1-4)Gal(b1-4)Glc
Method in brief: as §1

[2] = target: GalNAc(a1-3)GalNAc(b1-3)Gal(a1-4)Gal(b1-4)GlcNAc
Method in brief: as §1

GalNAc(b1-3)Gal = target: GalNAc(b1-3)Gal
Method in brief: as §1

[3] = target: GalNAc(b1-3)Gal(a1-4)Gal(b1-4)GlcNAc
Method in brief: as §1

[4] = target: GalNAc(b1-3)Gal(a1-4)Gal(b1-4)GlcNAc(b1-3)Gal(b1-4)Glc
Method in brief: as §1

[5] = target: GalNAc(b1-3)Gal(a1-6)Gal(b1-4)Glc
Method in brief: as §1

GalNAc(b1-3)GalNAc = target: GalNAc(b1-3)GalNAc
Method in brief: as §1

GalNAc(b1-3)GlcNAc = target: GalNAc(b1-3)GlcNAc
Method in brief: as §1

GalNAc(b1-4)Gal(b1-4)Glc = target: GalNAc(b1-4)Gal(b1-4)Glc
Method in brief: as §1

GalNAc(b1-4)GlcNAc = target: GalNAc(b1-4)GlcNAc
Method in brief: as §1

[6] = target: GalNAc(b1-4)GlcNAc(b1-2)Man
Method in brief: as §1

[7] = target: GalNAc(b1-4)GlcNAc(b1-2)Man(a1-3)[GalNAc(b1-4)GlcNAc(b1-2)Man(a1-6)]Man(b1-4)GlcNAc(b1-4)GlcNAc
Method in brief: as §1

[8] = target: GalNAc(b1-4)GlcNAc(b1-3)GalNAc(b1-4)GlcNAc
Method in brief: as §1

GalNAc(b1-4)GlcNAc6S = target: GalNAc(b1-4)GlcNAc6S
Method in brief: as §1

GalNAc(b1-6)GalNAc = target: GalNAc(b1-6)GalNAc
Method in brief: as §1

GalNAc3S(b1-4)GlcNAc = target: GalNAc3S(b1-4)GlcNAc
Method in brief: as §1

GalNAc3S(b1-4)GlcNAc3S = target: GalNAc3S(b1-4)GlcNAc3S
Method in brief: as §1

[9] = target: GalNAc3S(b1-4)[Fuc(a1-3)]GlcNAc
Method in brief: as §1

GalNAc4S6S(b1-4)GlcNAc = target: GalNAc4S6S(b1-4)GlcNAc
Method in brief: as §1

GalNAc6S(b1-4)GlcNAc = target: GalNAc6S(b1-4)GlcNAc
Method in brief: as §1

Glc(a1-4)Glc = target: Glc(a1-4)Glc
Method in brief: as §1

[10] = target: Glc(a1-4)Glc(a1-4)Glc(a1-4)Glc
Method in brief: as §1

Glc(a1-6)Glc(a1-6)Glc = target: Glc(a1-6)Glc(a1-6)Glc
Method in brief: as §1

[11] = target: Glc(a1-6)Glc(a1-6)Glc(a1-6)Glc
Method in brief: as §1

Glc(b1-4)Glc = target: Glc(b1-4)Glc
Method in brief: as §1

Glc(b1-6)Glc = target: Glc(b1-6)Glc
Method in brief: as §1

GlcA(b1-3)Gal = target: GlcA(b1-3)Gal
Method in brief: as §1

GlcA(b1-3)GlcNAc = target: GlcA(b1-3)GlcNAc
Method in brief: as §1

GlcA(b1-6)Gal = target: GlcA(b1-6)Gal
Method in brief: as §1

[12] = target: GlcA3S(b1-3)Gal(b1-4)GlcNAc(b1-2)Man
Method in brief: as §1

[13] = target: GlcA3S(b1-3)Gal(b1-4)GlcNAc(b1-3)Gal(b1-4)Glc
Method in brief: as §1

[14] = target: GlcNAc(a1-3)Gal(b1-4)GlcNAc
Method in brief: as §1

[15] = target: GlcNAc(a1-4)Gal(b1-3)GlcNAc
Method in brief: as §1

[16] = target: GlcNAc(a1-4)Gal(b1-4)GalNAc
Method in brief: as §1

[17] = target: GlcNAc(a1-4)Gal(b1-4)GlcNAc
Method in brief: as §1

[18] = target: GlcNAc(a1-4)Gal(b1-4)GlcNAc(b1-3)Gal(b1-4)Glc
Method in brief: as §1

[19] = target: GlcNAc(a1-4)Gal(b1-4)GlcNAc(b1-3)Gal(b1-4)GlcNAc
Method in brief: as §1

[20] = target: GlcNAc(a1-4)Gal(b1-4)GlcNAc(b1-3)Gal(b1-4)GlcNAc(b1-3)Gal(b1-4)GlcNAc
Method in brief: as §1

[21] = target: GlcNAc(a1-4)Gal(b1-4)GlcNAc(b1-3)Gal(b1-4)[Fuc(a1-3)]GlcNAc(b1-3)Gal(b1-4)[Fuc(a1-3)]GlcNAc
Method in brief: as §1

B1: LysMD3 (Homo sapiens), Q7Z3D4 (protein)
chain: MAGRHQNRSFPLPGVQSSGQVHAFGNCSDSDILEEDAEVYELRSRGKEKVRRSTSRDRLDDIIVLTKDIQEGDTLNAIALQYCCTVADIKRVNNLISDQDFFALRSIKIPVKKFSSLTETLCPPKGRQTSRHSSVQYSSEQQEILPANDSLAYSDSAGSFLKEVDRDIEQIVKCTDNKRENLNEVVSALTAQQMRFEPDNKNTQRKDPYYGADWGIG
glycan array binding signal (z-score) (Gal6S(b1-4)Glc): -0.764 | glycan array binding signal (z-score) (Gal6S(b1-4)Glc6S): -0.803 | glycan array binding signal (z-score) (Gal6S(b1-4)GlcNAc): -0.103 | glycan array binding signal (z-score) (Gal6S(b1-4)GlcNAc6S): -0.748 | glycan array binding signal (z-score) (GalNAc(a1-3)Gal): 0.335 | glycan array binding signal (z-score) (GalNAc(a1-3)GalNAc): 0.973 | glycan array binding signal (z-score) [1]: 0.102 | glycan array binding signal (z-score) [2]: 0.082 | glycan array binding signal (z-score) (GalNAc(b1-3)Gal): 0.293 | glycan array binding signal (z-score) [3]: 1.44 | glycan array binding signal (z-score) [4]: -0.098 | glycan array binding signal (z-score) [5]: 0.631 | glycan array binding signal (z-score) (GalNAc(b1-3)GalNAc): 1.67 | glycan array binding signal (z-score) (GalNAc(b1-3)GlcNAc): 1.85 | glycan array binding signal (z-score) (GalNAc(b1-4)Gal(b1-4)Glc): -1.4 | glycan array binding signal (z-score) (GalNAc(b1-4)GlcNAc): 0.627 | glycan array binding signal (z-score) [6]: 1.1 | glycan array binding signal (z-score) [7]: -0.698 | glycan array binding signal (z-score) [8]: 0.876 | glycan array binding signal (z-score) (GalNAc(b1-4)GlcNAc6S): -1.05 | glycan array binding signal (z-score) (GalNAc(b1-6)GalNAc): -0.494 | glycan array binding signal (z-score) (GalNAc3S(b1-4)GlcNAc): -0.843 | glycan array binding signal (z-score) (GalNAc3S(b1-4)GlcNAc3S): -0.621 | glycan array binding signal (z-score) [9]: -0.424 | glycan array binding signal (z-score) (GalNAc4S6S(b1-4)GlcNAc): -0.771 | glycan array binding signal (z-score) (GalNAc6S(b1-4)GlcNAc): -0.435 | glycan array binding signal (z-score) (Glc(a1-4)Glc): 0.632 | glycan array binding signal (z-score) [10]: 0.138 | glycan array binding signal (z-score) (Glc(a1-6)Glc(a1-6)Glc): -0.523 | glycan array binding signal (z-score) [11]: -0.734 | glycan array binding signal (z-score) (Glc(b1-4)Glc): 0.404 | glycan array binding signal (z-score) (Glc(b1-6)Glc): -0.137 | glycan array binding signal (z-score) (GlcA(b1-3)Gal): 0.593 | glycan array binding signal (z-score) (GlcA(b1-3)GlcNAc): 0.422 | glycan array binding signal (z-score) (GlcA(b1-6)Gal): -0.138 | glycan array binding signal (z-score) [12]: 0.105 | glycan array binding signal (z-score) [13]: -0.133 | glycan array binding signal (z-score) [14]: 0.184 | glycan array binding signal (z-score) [15]: 0.45 | glycan array binding signal (z-score) [16]: -0.452 | glycan array binding signal (z-score) [17]: -0.53 | glycan array binding signal (z-score) [18]: 0.061 | glycan array binding signal (z-score) [19]: 0.802 | glycan array binding signal (z-score) [20]: 0.211 | glycan array binding signal (z-score) [21]: 0.527
